According to article doi:10.1101/2023.04.20.537746:
These are yes or no findings as the source states them, for the method shown. In cells and extracts the contact can be indirect. Some results given as binding are weak or reduced against the parent protein; the word gives no strength.

Sequences of proteins named here, by UniProt entry; tags and fusion partners are left off. Residues count along the entry.
UniProt P35968, residues 20-1356: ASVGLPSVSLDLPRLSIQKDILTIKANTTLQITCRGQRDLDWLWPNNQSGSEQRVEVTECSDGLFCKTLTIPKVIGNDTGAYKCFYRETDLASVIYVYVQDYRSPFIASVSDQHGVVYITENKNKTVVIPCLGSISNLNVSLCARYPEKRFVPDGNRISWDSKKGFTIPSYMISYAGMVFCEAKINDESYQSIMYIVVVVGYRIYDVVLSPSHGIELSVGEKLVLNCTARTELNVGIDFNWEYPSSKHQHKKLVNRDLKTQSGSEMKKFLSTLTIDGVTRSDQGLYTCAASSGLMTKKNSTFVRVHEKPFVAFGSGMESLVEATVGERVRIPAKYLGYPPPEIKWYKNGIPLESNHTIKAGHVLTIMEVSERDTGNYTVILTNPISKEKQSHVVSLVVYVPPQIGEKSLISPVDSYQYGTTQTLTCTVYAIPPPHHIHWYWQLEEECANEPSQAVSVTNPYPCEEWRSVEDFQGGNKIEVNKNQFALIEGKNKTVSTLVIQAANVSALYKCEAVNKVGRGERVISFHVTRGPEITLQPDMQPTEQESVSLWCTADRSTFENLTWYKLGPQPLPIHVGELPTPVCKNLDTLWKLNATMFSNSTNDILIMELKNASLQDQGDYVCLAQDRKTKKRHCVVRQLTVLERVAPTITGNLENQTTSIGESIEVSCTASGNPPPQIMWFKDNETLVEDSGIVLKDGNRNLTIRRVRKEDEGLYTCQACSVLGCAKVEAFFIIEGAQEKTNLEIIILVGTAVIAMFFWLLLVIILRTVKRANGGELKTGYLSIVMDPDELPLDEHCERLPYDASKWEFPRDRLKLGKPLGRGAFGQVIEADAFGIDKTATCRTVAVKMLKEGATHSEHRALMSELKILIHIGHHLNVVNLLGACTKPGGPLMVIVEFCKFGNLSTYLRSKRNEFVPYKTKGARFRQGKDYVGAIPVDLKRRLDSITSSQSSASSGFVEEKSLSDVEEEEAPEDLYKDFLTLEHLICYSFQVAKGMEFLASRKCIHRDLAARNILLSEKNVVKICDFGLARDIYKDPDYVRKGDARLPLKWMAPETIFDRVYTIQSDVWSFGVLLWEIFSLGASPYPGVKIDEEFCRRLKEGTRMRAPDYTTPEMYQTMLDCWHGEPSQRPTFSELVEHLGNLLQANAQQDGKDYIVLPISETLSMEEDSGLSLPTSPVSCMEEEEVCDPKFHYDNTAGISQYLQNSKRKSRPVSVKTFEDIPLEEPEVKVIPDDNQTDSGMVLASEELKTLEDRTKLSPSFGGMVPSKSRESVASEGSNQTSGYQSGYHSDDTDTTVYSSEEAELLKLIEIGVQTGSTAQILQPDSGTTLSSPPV
UniProt P35918, residues 20-1345: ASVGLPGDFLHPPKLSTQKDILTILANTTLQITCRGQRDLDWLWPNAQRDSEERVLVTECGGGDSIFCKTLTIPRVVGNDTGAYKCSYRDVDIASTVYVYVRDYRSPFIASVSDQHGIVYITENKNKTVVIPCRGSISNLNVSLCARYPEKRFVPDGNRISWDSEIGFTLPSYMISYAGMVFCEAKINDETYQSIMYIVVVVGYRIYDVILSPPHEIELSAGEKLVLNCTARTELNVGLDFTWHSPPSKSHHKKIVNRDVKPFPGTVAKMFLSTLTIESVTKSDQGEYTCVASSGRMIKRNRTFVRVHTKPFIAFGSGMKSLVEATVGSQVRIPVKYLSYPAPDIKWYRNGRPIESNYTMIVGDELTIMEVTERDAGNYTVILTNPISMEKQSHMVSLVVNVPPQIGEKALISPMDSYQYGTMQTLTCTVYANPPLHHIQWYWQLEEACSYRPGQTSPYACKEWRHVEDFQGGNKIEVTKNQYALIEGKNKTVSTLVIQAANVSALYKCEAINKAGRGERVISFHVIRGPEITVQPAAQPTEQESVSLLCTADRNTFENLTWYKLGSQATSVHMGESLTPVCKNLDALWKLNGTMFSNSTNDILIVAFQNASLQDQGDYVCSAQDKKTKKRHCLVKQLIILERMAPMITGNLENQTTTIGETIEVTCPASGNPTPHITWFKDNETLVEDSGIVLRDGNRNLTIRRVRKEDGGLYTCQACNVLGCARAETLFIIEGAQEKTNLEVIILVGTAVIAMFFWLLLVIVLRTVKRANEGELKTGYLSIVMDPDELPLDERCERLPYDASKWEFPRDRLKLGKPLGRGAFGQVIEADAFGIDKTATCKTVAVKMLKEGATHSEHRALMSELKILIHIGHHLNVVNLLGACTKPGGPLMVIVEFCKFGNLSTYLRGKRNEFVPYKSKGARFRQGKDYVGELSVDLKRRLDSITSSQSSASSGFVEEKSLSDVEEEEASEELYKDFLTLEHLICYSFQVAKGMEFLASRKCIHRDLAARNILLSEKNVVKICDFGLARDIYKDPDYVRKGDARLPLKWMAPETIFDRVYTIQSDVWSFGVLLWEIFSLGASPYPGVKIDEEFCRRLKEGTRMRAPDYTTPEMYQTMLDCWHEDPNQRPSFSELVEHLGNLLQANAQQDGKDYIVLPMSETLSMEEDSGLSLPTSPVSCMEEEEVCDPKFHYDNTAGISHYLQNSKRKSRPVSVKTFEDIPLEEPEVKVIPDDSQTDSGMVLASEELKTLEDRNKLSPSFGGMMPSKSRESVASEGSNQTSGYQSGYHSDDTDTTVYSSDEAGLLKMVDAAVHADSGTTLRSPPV

B1: DCBLD1 (Discoidin, CUB, and LCCL domain-containing protein 1), human, endogenous in HUVECs (protein, UniProt Q8N8Z6 35-715)
chain: EELGDGCGHLVTYQDSGTMTSKNYPGTYPNHTVCEKTITVPKGKRLILRLGDLDIESQTCASDYLLFTSSSDQYGPYCGSMTVPKELLLNTSEVTVRFESGSHISGRGFLLTYASSDHPDLITCLERASHYLKTEYSKFCPAGCRDVAGDISGNMVDGYRDTSLLCKAAIHAGIIADELGGQISVLQRKGISRYEGILANGVLSRDGSLSDKRFLFTSNGCSRSLSFEPDGQIRASSSWQSVNESGDQVHWSPGQARLQDQGPSWASGDSSNNHKPREWLEIDLGEKKKITGIRTTGSTQSNFNFYVKSFVMNFKNNNSKWKTYKGIVNNEEKVFQGNSNFRDPVQNNFIPPIVARYVRVVPQTWHQRIALKVELIGCQITQGNDSLVWRKTSQSTSVSTKKEDETITRPIPSEETSTGINITTVAIPLVLLVVLVFAGMGIFAAFRKKKKKGSPYGSAEAQKTDCWKQIKYPFARHQSAEFTISYDNEKEMTQKLDLITSDMADYQQPLMIGTGTVTRKGSTFRPMDTDAEEAGVSTDAGGHYDCPQRAGRHEYALPLAPPEPEYATPIVERHVLRAHTFSAQSGYRVPGPQPGHKHSLSSGGFSPVAGVGAQDGDYQRPHSAQPADRGYDRPKAVSALATESGHPDSQKPPTHPGTSDSYSAPRDCLTPLNQTAMTALL
B2: Protein tyrosine phosphatase 1B (PTP1B), endogenous in mPMVECs (enzyme, UniProt P35821 1-432)
chain: MEMEKEFEEIDKAGNWAAIYQDIRHEASDFPCKVAKLPKNKNRNRYRDVSPFDHSRIKLHQEDNDYINASLIKMEEAQRSYILTQGPLPNTCGHFWEMVWEQKSRGVVMLNRIMEKGSLKCAQYWPQQEEKEMVFDDTGLKLTLISEDVKSYYTVRQLELENLTTKETREILHFHYTTWPDFGVPESPASFLNFLFKVRESGSLSLEHGPIVVHCSAGIGRSGTFCLADTCLLLMDKRKDPSSVDIKKVLLEMRRFRMGLIQTADQLRFSYLAVIEGAKFIMGDSSVQDQWKELSREDLDLPPEHVPPPPRPPKRTLEPHNGKCKELFSSHQWVSEETCGDEDSLAREEGRAQSSAMHSVSSMSPDTEVRRRMVGGGLQSAQASVPTEEELSSTEEEHKAHWPSHWKPFLVNVCMATLLATGAYLCYRVCFH

Tests used:
[1] = molecular target: VEGFR-2 (human, endogenous in HUVECs) (human (endogenous in HUVECs)) (UniProt P35968); test: co-IP
[2] = molecular target: VEGFR-2 (mouse, endogenous in mPMVECs) (mouse (endogenous in mPMVECs)) (UniProt P35918); test: co-IP

| Binder | binding [1] | binding [2] |
| --- | --- | --- |
| B1 | binds | – |
| B2 | – | binds |
